Reference: PubChem BioAssay AID504467 (National Center for Advancing Translational Sciences (NCATS), 2011)
Out of some 330,000 compounds screened, about 7,700 (2.3%) were called active. The inconclusive results got no clear call from the source; some entries with a clear call stand among them for comparison. The call rests on the fitted dose curve; in most records, active means well fitted inhibition curve with a large enough effect; inconclusive means small, poorly fitted or top-dose-only effect, or effect the other way; inactive means flat fitted curve, though single readings scatter. Potencies beside an inconclusive call are fits to weak or partial responses and may not hold up.

assay: qHTS screen for small molecules that inhibit ELG1-dependent DNA repair in human embryonic kidney (HEK293T) cells expressing luciferase-tagged ELG1; details: HEK293T ELG1-luciferase reporter, luminescence, 16 h, DNA damage induced by 5-fluorouridine; series mostly up to 46.1 µM; further: nearly all actives have a fitted effect of over 55% in size
Method in brief: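 Step one: seed 2,000 cells per well. Step two: pin-transfer compound or DMSO alongside 5-fluorouridine. Step three: incubate 16 hr, 37 °C, 5% CO2. Step four: add ONE-Glo, wait 30 min, read luminescence.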
Potency means the concentration at half of the fitted maximal effect.

SMILES	Potency
CCC(=NCc1cc(OC)cc(OC)c1)c1c(O)n(C)c(=O)n(C)c1=O	active: 20.6 µM
CCC(=O)c1ccc(OC(=O)N(C)c2ccccc2)cc1	inconclusive: 14.6 µM [activator, partial curve]
CC(C)Oc1ccc(CC2(CCc3ccncc3)C(=O)NC(=O)NC2=O)cc1	inconclusive: 18.3 µM [inhibitor, partial curve, poor fit]
CCOC(=O)C1CCCN(Cc2ccc(-c3ccccc3)cc2)C1 (configuration not stated)	inconclusive: 5.8 µM [inhibitor, partial curve]
CN1C[C@@H]2C[C@@H](c3cccn3-c3ccccn3)N3CCC[C@@]23C1=O	inactive
CCn1c(C)c(C(=O)Nc2ccc(OC)cc2)c2cc(OC)ccc21	inactive
CC1(C)C(=O)CC[C@@]2(C)C1=CCC1C2CC[C@]2(C)C(=O)CCC12 (some centres not stated)	inconclusive: 29.1 µM [inhibitor, single point]
Cc1nccc2c1[nH]c1ccc(Br)cc12	inactive
CCC(=Nc1ccc2c(c1)CCC2)c1c(O)n(C)c(=O)n(C)c1=O	inconclusive: 3.26 µM [inhibitor, partial curve]
COC(=O)[C@@]1(C)CC[C@]2(C)CC[C@@]3(C)C(=CC(=O)C4[C@@]5(C)CC[C@H](O)C(C)(C)[C@@H]5CC[C@]43C)[C@H]2C1 (some centres not stated)	inconclusive: 29.1 µM [activator, single point]
CCCCCCn1c(O)c(C(C)=NC)c(=O)[nH]c1=O	inconclusive: 29.1 µM [activator, partial curve, poor fit]
COc1ccc(/C(=N/OC(C)=O)c2nccc3cc(OC)c(OC)cc23)cc1OC	active: 3.26 µM
CN1CCN(C(=O)O[C@H]2c3nccnc3C(=O)N2c2ccc(Cl)cn2)CC1	inactive
COc1ccc2[nH]c3c(c2c1)CCN1C(=O)C(CC(=O)NCc2cccc(C(F)(F)F)c2)C[C@H](C(=O)N2CCCCC2)[C@@]31C (some centres not stated)	inconclusive: 32.6 µM [inhibitor, single point]
CC(=O)O[C@H]1[C@H]2O[C@]23[C@@H]2CC[C@]4(O)C[C@@H](O)CC[C@]4(C)C2CC[C@]3(C)[C@H]1c1ccc(=O)oc1 (some centres not stated)	inconclusive: 1.83 µM [inhibitor, full curve, poor fit]
CCN(C[C@H]1N[C@@](CC)(C(=O)OC)[C@H]2C(=O)N(Cc3ccccc3)C(=O)[C@@H]12)S(=O)(=O)c1ccc(C)cc1	inconclusive: 23.1 µM [inhibitor, partial curve, poor fit]
CC(=O)N1CCN(c2ccc([N+](=O)[O-])cc2C=C2C(=O)NC(=O)NC2=O)CC1	inconclusive: 25.9 µM [activator, partial curve, poor fit]
CCOc1ccc(C(=O)Nc2nnc(S(=O)(=O)N(C)Cc3ccco3)s2)cc1	inconclusive: 8.2 µM [activator, partial curve]
c1ccc(-c2ccc(C(c3ccccc3)n3ccnc3)cc2)cc1 (configuration not stated)	inconclusive: 29.1 µM [activator, single point]
CC(C)CC(NS(=O)(=O)c1ccc2c(c1)oc(=O)n2C)C(=O)N1CC=C(c2ccccc2)CC1 (configuration not stated)	inconclusive: 32.6 µM [inhibitor, single point]
COc1ccc(NC(=O)c2c(C)nn(Cc3ccccc3Cl)c2Cl)cc1Cl	inactive

A stretch from further up, as a working copy:
SMILES	Potency
CC(C)Oc1ccc(CC2(CCc3ccncc3)C(=O)NC(=O)NC2=O)cc1	inconclusive: 18.3 µM [inhibitor, partial curve, poor fit]
CCOC(=O)C1CCCN(Cc2ccc(-c3ccccc3)cc2)C1 (configuration not stated)	inconclusive: 5.8 µM [inhibitor, partial curve]

Later entries

SMILES	Potency
Cc1cc(N2CCNCC2)nc2ccccc12	inconclusive: 0.073 µM [activator, partial curve, poor fit]
CC[n+]1c(/C=C/N(C)c2ccccc2)sc2ccc(Cl)cc21	inconclusive: 1.03 µM [inhibitor, partial curve, poor fit]
C=CCc1cc(C=C2C(=O)N(C)C(=O)N(C)C2=O)cc(OCC)c1OCc1ccccc1	inactive
COc1ccc(C(=O)Oc2cccc3cccnc23)cc1S(=O)(=O)N1CCOCC1	inactive
COc1ccc(C)cc1NC(=O)CN1CCN(CC(=O)Nc2ccccc2F)CC1	inconclusive: 29.1 µM [inhibitor, single point]
CC(Cc1ccccc1)NC(=O)/C=C/c1ccc(Cl)cc1 (configuration not stated)	inconclusive: 18.4 µM [activator, partial curve, poor fit]
C=CCOc1c(Cl)cc(CNc2ccc3[nH]c(=O)[nH]c3c2)cc1OC	inconclusive: 9.2 µM [inhibitor, partial curve]
CCC(=Nc1ccc2c(c1)CCC2)c1c(O)n(C2CCCCC2)c(=O)[nH]c1=O	inactive
Cn1cc(C(=O)OCC(=O)Nc2ccccc2)c2ccccc21	inactive
COC(=O)C1=C(c2ccccc2OCc2ccccc2)C[C@@H]2CC[C@H]1N2C(=O)NCCOc1ccccc1Cl	inconclusive: 20.6 µM [inhibitor, single point]
CC(=O)NC(C)Cc1ccccc1 (configuration not stated)	inactive
Nc1nc(SCc2ccc(Cl)cc2Cl)n[nH]1	inconclusive: 16.4 µM [activator, partial curve]
Cc1cccc(-n2c(-c3ccco3)nc3ccccc3c2=O)c1C	inconclusive: 23.1 µM [inhibitor, single point]
O=C(O)c1cccc(N=Nc2c(O)[nH]c(=O)[nH]c2=O)c1	inactive
CN(C)C(=O)Oc1ccnc2cc(Cl)ccc12	inconclusive: 32.6 µM [activator, partial curve, poor fit]
CCN(CC)P(=O)(c1nccn1C)N(CC)CC	inactive
Cc1ccsc1C(=O)C1CCCN(Cc2ccc(-n3cccn3)cc2)C1 (configuration not stated)	inactive
Cc1ccc(/C=C2\C(=O)NC(=O)N(CCc3ccc(F)cc3)C2=O)s1	inconclusive: 1.03 µM [activator, full curve]
CCC1(OC(=O)CN)C(=O)OCc2c1cc1n(c2=O)Cc2cc3ccccc3nc2-1 (configuration not stated)	inconclusive: 11.6 µM [inhibitor, partial curve, poor fit]
Cc1nc(N2CCN(Cc3ccccc3)CC2)nc2c1C(=O)CC(C)C2 (configuration not stated)	inconclusive: 12.6 µM [inhibitor, partial curve, poor fit]
COC(=O)C1=C(c2ccc(F)cc2OCc2ccccc2)C[C@@H]2CC[C@H]1N2C(=O)NCc1ccc(C(F)(F)F)cc1	inconclusive: 18.3 µM [inhibitor, single point]
